Results deposited as PubChem BioAssay AID504764 (Drosophila RNAi Screening Center, 2011).
Purpose: 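Genome-wide screen for regulators of Notch-driven gene expression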 (primary screen). Cell system: Drosophila Kc167 cells. Reagents: long dsRNA against Drosophila genes. Duration: about 5 days (4 days dsRNA, then 24 h after transfection). Conditions: transfection of constitutively active membrane-tethered Notch lacking the extracellular domain, read 24 h later. Detection: 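Firefly luciferase from an E(spl)m3 reporter with active Notch, plus control-promoter and uninduced reporter wells for normalisation; unnormalised counts, duplicate wells a and b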. Direction: induced reporter light, run 1, well a and induced reporter light, run 1, well b: higher = more light from the Notch target reporter with active Notch; control promoter light, run 1, well a and control promoter light, run 1, well b: higher = more light from the viral control promoter (cell number, transfection, viability); uninduced reporter light, run 1, well a: higher = more light from the Notch target reporter without active Notch. Active means: 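Wells with low control signal or poorly matching duplicates excluded; duplicates averaged; per source plate, z beyond ±2 for induced/control log2 ratio or beyond ±1.8 for induced/uninduced marks a hit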. Calls: active = modifier hit (raised or lowered Notch signal); inactive = not a hit.
The screen tested about 22,000 reagents; below is a random part of those with a known target gene and a result. Over the whole deposit, 403 (1.9%) are marked active. 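Unnormalised raw counts per well; ratio z-scores behind the hit calls and whether each hit raises or lowers signal are not deposited.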 Not stated in the record: the amount of reagent.

"induced reporter light, run 1, well a","induced reporter light, run 1, well b","control promoter light, run 1, well a","control promoter light, run 1, well b","uninduced reporter light, run 1, well a",Outcome,gene,amplicon
85600,99095,85310,98330,8375,inactive,Orct (Organic cation transporter),DRSC16777
96085,88855,93685,96710,6805,inactive,dpr13 (defective proboscis extension response 13),DRSC06160
73350,81975,1.00e5,1.02e5,7350,inactive,dpr13 (defective proboscis extension response 13),DRSC06464
2.47e5,2.63e5,3.30e5,3.40e5,13695,inactive,CG12477,DRSC09886
2.22e5,2.48e5,2.98e5,2.60e5,12710,inactive,CG15014,DRSC08468
63020,61520,42730,47635,8880,inactive,CG12708,DRSC19490
1.61e5,1.55e5,2.07e5,2.24e5,11350,active,Sans (Scaffold protein containing ankyrin repeats and SAM domain),DRSC06357
1.63e5,1.54e5,2.33e5,1.72e5,7580,inactive,CG33060,DRSC09939
1.04e5,83210,1.06e5,1.39e5,9125,inactive,CG30095,DRSC07175
1.93e5,2.24e5,1.58e5,1.89e5,15850,inactive,Nplp1 (Neuropeptide-like precursor 1),DRSC04370
98405,1.02e5,1.43e5,90475,6845,inactive,Srr (Serine racemase),DRSC16382
2.00e5,1.98e5,2.05e5,2.27e5,13265,inactive,CG42535,DRSC09041
1.79e5,1.45e5,3.09e5,3.08e5,13000,inactive,CG15239,DRSC17972
72200,81930,80420,54635,5340,inactive,alpha-Est8 (alpha-Esterase-8),DRSC12620
96545,1.16e5,1.28e5,1.38e5,6510,inactive,Cyp4d20 (Cytochrome P450 4d20),DRSC08654
1.78e5,1.29e5,1.94e5,1.99e5,14075,inactive,CG12341,DRSC06133

Active calls, of those listed so far:
"induced reporter light, run 1, well a","induced reporter light, run 1, well b","control promoter light, run 1, well a","control promoter light, run 1, well b","uninduced reporter light, run 1, well a",Outcome,gene,amplicon
1.61e5,1.55e5,2.07e5,2.24e5,11350,active,Sans (Scaffold protein containing ankyrin repeats and SAM domain),DRSC06357

More reagents follow.
"induced reporter light, run 1, well a","induced reporter light, run 1, well b","control promoter light, run 1, well a","control promoter light, run 1, well b","uninduced reporter light, run 1, well a",Outcome,gene,amplicon
1.58e5,1.22e5,1.63e5,1.51e5,7305,inactive,CG5235,DRSC10494
13220,8310,15485,13070,3225,inactive,jus (julius seizure),DRSC14861
1.17e5,1.16e5,1.21e5,1.14e5,8225,inactive,jus (julius seizure),DRSC14862
1.55e5,1.51e5,1.74e5,1.59e5,13400,inactive,CG11883,DRSC06094
1.90e5,1.97e5,2.57e5,2.99e5,14110,inactive,Ogg1 (8-oxoguanine DNA glycosylase),DRSC17738
2.10e5,2.31e5,1.77e5,1.56e5,15140,inactive,Npc2b (Niemann-Pick type C-2b),DRSC15464
1.41e5,1.36e5,1.43e5,1.84e5,14345,inactive,Elba3 (Early boundary activity 3),DRSC00469
1.35e5,1.76e5,1.07e5,1.19e5,19090,active,Pen (Pendulin),DRSC03396
1.35e5,93070,88420,92365,9855,inactive,l(3)76BDm (lethal (3) 76BDm),DRSC11047
39185,33290,23332,21720,3255,inactive,Prosbeta7 (Proteasome beta7 subunit),DRSC12186
1.10e5,1.20e5,1.46e5,1.53e5,8185,inactive,rl (rolled),DRSC07833
84655,90575,71365,65810,8932,inactive,rl (rolled),DRSC20742
,,,,,inactive,rl (rolled),DRSC21814
1.54e5,1.45e5,2.27e5,2.10e5,9665,inactive,cac (cacophony),DRSC19743
1.96e5,1.85e5,2.04e5,1.95e5,15450,inactive,cac (cacophony),DRSC20354
2.10e5,2.08e5,1.92e5,1.79e5,17675,inactive,Dus4 (Dihydrouridine synthase 4),DRSC02066
1.77e5,1.35e5,2.08e5,1.93e5,12440,inactive,Mayo,DRSC14300
1.21e5,1.04e5,1.05e5,88605,9805,inactive,CG8420,DRSC16418
2.35e5,2.23e5,2.09e5,2.90e5,14240,inactive,CG32457,DRSC11596
1.48e5,1.35e5,1.31e5,1.15e5,6265,inactive,yps (ypsilon schachtel),DRSC11411
70785,78415,87910,84355,4570,active,CG16903,DRSC18561
70115,67620,77615,67630,5065,inactive,CG32681,DRSC17646
1.15e5,1.20e5,1.29e5,1.38e5,10245,inactive,CG4935,DRSC01924
1.04e5,95630,1.51e5,2.13e5,8135,inactive,CG10916,DRSC06012
1.48e5,1.15e5,2.45e5,1.88e5,10925,inactive,Ir8a (Ionotropic receptor 8a),DRSC17817
99915,97685,1.28e5,1.77e5,7250,inactive,Ir8a (Ionotropic receptor 8a),DRSC17869
1.22e5,1.21e5,1.10e5,1.58e5,11040,inactive,Chro (Chromator),DRSC11630
1.51e5,1.45e5,2.04e5,1.72e5,13410,inactive,CG13627,DRSC14629
1.51e5,1.58e5,2.07e5,2.22e5,7975,inactive,CG13063,DRSC09946
2.21e5,1.89e5,1.86e5,1.93e5,16110,inactive,Amt (Ammonium transporter),DRSC16055
1.42e5,1.83e5,2.16e5,1.52e5,7475,inactive,unc-13-4A,DRSC10201
1.65e5,1.64e5,1.44e5,1.27e5,5210,inactive,unc-13-4A,DRSC10202
8380,10425,8000,8740,2410,inactive,unc-13-4A,DRSC10203
1.32e5,1.12e5,1.33e5,1.11e5,5335,inactive,unc-13-4A,DRSC11013
